# Some of the results follow.
# The chains behind the UniProt entries cited, without tags or fusion partners. Where a name states a change or a piece, a line headed by the entry shows the natural chain unless it says otherwise.
# UniProt Q9UGV2: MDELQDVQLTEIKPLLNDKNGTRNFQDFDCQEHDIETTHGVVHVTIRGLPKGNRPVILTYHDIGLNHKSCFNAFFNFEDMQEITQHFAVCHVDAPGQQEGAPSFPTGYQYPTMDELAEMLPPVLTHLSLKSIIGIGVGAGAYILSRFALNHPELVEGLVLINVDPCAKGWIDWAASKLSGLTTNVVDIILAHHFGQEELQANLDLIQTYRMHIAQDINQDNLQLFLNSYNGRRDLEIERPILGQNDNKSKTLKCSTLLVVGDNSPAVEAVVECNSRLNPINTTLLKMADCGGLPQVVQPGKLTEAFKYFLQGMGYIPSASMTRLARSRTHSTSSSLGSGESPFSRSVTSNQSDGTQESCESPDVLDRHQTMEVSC
# UniProt Q00653: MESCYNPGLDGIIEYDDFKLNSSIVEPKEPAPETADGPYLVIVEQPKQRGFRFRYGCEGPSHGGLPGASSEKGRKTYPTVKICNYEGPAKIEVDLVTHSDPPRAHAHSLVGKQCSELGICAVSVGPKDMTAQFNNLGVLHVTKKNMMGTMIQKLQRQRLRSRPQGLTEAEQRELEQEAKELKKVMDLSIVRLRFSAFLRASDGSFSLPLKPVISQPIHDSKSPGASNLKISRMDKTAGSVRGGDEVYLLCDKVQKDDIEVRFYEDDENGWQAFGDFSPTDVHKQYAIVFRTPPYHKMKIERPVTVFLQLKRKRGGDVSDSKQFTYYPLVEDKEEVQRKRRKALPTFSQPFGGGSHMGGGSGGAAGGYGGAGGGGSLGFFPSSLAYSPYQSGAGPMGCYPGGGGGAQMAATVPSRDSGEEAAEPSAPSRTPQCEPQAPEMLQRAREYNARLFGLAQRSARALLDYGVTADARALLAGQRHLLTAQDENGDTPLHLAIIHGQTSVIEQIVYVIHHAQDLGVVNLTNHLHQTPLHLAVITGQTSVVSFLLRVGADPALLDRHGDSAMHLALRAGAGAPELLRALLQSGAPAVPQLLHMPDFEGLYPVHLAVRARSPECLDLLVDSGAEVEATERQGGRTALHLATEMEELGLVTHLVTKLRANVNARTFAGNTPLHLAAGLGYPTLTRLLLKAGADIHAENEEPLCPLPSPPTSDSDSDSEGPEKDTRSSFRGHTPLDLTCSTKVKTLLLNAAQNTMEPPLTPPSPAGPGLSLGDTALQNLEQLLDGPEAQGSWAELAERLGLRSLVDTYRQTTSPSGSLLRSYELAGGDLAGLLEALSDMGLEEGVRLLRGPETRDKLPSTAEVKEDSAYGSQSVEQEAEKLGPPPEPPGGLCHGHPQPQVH
# UniProt P61916: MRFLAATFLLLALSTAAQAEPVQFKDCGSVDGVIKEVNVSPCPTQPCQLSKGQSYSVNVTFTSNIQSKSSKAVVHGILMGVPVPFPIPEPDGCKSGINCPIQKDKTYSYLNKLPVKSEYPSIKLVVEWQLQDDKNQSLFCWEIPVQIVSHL
# UniProt Q9BSC4: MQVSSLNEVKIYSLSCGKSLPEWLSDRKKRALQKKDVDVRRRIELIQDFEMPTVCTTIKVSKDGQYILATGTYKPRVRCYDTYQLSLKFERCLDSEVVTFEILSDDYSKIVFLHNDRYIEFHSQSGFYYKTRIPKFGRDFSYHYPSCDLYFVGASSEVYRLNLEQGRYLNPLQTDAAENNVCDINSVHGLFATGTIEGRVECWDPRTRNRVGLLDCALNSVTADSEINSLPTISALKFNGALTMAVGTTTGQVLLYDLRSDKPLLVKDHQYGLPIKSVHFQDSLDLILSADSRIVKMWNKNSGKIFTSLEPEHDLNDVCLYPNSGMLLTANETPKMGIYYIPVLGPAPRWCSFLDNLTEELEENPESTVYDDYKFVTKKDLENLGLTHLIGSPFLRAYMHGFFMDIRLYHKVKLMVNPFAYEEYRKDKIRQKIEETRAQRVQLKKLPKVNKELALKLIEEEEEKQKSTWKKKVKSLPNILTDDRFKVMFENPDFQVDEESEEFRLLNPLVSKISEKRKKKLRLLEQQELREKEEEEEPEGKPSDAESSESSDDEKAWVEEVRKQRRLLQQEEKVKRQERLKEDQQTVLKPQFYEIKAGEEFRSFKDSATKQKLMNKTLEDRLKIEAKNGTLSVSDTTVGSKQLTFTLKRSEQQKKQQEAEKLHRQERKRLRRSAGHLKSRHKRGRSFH
# UniProt P52298: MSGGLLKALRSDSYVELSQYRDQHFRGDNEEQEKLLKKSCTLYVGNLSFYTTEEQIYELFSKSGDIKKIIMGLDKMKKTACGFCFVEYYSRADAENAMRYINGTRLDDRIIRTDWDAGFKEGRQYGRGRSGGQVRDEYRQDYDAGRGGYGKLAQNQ
# UniProt Q8WTT2: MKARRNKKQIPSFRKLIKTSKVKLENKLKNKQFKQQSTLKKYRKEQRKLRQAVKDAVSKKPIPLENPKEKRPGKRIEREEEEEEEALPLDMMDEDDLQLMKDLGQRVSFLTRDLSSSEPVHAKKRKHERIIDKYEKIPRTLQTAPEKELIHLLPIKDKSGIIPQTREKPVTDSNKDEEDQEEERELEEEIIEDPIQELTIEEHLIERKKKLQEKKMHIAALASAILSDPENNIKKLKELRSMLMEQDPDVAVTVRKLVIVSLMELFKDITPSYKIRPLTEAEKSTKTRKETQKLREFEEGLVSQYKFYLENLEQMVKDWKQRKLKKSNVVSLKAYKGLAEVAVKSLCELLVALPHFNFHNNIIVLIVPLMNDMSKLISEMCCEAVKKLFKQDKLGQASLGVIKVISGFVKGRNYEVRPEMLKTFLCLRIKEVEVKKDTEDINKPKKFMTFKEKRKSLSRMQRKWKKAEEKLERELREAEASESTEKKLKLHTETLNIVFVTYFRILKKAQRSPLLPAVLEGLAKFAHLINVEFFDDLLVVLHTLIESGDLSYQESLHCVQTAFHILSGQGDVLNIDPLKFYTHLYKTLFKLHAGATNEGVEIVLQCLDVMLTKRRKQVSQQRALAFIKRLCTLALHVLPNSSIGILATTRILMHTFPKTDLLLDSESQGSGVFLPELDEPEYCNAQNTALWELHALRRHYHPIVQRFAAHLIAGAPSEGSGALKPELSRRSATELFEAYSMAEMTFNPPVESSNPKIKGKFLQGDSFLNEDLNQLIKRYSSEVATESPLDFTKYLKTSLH
# UniProt Q9NR45: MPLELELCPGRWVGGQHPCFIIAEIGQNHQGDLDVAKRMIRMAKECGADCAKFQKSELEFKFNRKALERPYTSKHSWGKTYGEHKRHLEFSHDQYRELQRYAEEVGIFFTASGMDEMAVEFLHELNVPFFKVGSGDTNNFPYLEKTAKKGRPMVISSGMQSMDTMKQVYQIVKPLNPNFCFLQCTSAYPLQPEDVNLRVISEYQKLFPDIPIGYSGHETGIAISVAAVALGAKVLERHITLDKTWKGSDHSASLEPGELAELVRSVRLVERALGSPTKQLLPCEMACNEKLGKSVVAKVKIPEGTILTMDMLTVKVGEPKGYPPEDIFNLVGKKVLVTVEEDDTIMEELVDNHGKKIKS
# UniProt Q9Y483: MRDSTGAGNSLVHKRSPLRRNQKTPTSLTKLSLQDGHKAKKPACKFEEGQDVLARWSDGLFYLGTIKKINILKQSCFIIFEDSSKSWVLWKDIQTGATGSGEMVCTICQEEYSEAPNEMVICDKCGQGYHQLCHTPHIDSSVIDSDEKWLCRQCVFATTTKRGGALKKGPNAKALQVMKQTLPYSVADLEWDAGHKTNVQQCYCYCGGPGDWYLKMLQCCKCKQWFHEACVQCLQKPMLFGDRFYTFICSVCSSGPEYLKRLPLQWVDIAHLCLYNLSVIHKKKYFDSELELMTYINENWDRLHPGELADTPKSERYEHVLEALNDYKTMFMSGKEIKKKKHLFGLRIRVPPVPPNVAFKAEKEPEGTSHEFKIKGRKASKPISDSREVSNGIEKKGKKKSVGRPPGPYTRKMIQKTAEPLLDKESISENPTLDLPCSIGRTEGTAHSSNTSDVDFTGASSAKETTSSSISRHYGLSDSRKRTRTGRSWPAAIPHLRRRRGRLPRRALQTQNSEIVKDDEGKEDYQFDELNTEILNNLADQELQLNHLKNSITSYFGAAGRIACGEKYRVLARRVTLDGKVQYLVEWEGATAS
# UniProt Q9ULX3: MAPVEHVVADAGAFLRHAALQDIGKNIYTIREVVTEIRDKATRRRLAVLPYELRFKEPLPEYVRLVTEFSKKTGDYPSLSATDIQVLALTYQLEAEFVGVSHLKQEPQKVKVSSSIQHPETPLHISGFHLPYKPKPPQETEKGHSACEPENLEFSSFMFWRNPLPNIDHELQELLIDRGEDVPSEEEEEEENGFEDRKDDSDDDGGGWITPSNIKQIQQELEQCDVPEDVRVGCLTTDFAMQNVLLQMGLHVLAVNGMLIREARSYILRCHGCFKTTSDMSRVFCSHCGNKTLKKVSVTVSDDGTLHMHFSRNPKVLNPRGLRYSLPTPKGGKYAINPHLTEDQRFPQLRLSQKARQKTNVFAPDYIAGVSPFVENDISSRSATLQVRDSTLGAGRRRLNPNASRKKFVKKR
# UniProt P28331, whole entry: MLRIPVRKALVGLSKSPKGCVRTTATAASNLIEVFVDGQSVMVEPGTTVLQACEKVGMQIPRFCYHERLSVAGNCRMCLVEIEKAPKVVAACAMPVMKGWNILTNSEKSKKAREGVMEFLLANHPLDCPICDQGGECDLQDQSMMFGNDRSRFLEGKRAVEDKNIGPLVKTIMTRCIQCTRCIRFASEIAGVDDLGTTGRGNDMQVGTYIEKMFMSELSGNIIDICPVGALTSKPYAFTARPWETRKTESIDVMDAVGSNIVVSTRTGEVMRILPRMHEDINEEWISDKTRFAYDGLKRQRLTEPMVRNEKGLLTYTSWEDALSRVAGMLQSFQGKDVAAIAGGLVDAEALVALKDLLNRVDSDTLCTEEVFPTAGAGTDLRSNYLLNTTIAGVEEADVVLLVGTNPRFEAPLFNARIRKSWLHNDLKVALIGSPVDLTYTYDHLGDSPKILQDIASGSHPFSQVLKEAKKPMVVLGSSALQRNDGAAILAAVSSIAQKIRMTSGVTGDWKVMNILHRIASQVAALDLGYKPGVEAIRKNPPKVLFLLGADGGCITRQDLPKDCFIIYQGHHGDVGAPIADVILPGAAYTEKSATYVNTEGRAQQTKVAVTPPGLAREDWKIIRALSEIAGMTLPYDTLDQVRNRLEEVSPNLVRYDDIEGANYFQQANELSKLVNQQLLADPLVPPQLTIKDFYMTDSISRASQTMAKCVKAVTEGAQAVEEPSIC
# UniProt Q5VVJ2: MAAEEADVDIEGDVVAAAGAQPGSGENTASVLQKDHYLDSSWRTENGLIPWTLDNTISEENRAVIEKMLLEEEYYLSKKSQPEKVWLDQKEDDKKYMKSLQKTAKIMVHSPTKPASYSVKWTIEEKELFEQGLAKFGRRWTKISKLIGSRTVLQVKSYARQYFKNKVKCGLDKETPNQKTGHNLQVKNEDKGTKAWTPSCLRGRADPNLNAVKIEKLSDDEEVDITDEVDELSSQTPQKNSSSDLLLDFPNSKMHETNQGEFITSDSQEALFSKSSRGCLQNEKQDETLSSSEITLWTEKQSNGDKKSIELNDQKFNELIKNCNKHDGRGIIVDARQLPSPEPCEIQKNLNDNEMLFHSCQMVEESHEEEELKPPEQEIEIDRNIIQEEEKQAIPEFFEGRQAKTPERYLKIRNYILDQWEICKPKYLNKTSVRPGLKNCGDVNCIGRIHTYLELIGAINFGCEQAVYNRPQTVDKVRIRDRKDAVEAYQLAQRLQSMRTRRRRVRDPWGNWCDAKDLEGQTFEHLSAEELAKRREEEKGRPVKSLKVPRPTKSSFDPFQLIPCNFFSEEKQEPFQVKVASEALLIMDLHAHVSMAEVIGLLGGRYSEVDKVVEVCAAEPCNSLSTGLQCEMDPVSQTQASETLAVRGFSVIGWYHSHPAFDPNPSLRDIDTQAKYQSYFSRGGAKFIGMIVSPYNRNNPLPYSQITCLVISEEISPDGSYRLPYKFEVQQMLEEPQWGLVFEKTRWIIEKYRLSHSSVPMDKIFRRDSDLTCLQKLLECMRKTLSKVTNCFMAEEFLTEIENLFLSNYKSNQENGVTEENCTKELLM
# UniProt Q9Y6C9: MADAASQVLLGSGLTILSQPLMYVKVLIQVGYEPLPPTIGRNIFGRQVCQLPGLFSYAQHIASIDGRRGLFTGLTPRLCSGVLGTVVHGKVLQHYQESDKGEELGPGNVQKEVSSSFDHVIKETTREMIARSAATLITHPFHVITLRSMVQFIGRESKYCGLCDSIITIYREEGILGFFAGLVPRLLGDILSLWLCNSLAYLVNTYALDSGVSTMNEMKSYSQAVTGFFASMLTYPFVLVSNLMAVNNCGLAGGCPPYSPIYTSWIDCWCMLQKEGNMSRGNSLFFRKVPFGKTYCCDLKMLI
# UniProt Q9UMY1: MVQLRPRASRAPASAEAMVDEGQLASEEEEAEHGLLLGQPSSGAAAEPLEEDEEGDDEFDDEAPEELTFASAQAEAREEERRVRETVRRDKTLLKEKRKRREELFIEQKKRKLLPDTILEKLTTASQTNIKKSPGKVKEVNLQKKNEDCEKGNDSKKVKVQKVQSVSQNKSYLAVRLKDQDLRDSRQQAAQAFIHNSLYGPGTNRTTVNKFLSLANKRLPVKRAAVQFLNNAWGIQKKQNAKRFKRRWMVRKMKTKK
# Compound: COc1ccc(Cn2ccc3ccc(C(=O)NO)cc32)cc1
# Assay: dose-dependent thermal stabilisation call (2D-TPP, DLPTP, 10% FDR) (binary (1 = stabilised)); higher = stabilised by the compound
# Details: system: HL-60 intact cells; concentration range 0.04-10 µM
row,Target,dose-dependent thermal stabilisation call
1,NPM1 (UniProt P06748),inactive: 0
2,NARG1L (UniProt Q6N069),inactive: 0
3,NLRX1 (UniProt Q86UT6),inactive: 0
4,NDRG3 (UniProt Q9UGV2),inactive: 0
5,MUDENG (UniProt Q9H0R1),inactive: 0
6,MYBBP1A (UniProt Q9BQG0),inactive: 0
7,NFKB2 (UniProt Q00653),inactive: 0
8,NPC2 (UniProt P61916),inactive: 0
9,MTA2 (UniProt O94776),inactive: 0
10,NOL10 (UniProt Q9BSC4),inactive: 0
11,NDUFA9 (UniProt Q16795),inactive: 0
12,NAPEPLD (UniProt Q6IQ20),inactive: 0
13,NCBP2 (UniProt P52298),inactive: 0
14,NDOR1 (UniProt Q9UHB4),inactive: 0
15,MTDH (UniProt Q86UE4),inactive: 0
16,NPC1 (UniProt O15118),inactive: 0
17,NOC3L (UniProt Q8WTT2),inactive: 0
18,NANS (UniProt Q9NR45),inactive: 0
19,MTF2 (UniProt Q9Y483),inactive: 0

# Shown with bars between the fields: entries from further up
row | Target | dose-dependent thermal stabilisation call
2 | NARG1L (UniProt Q6N069) | inactive: 0
15 | MTDH (UniProt Q86UE4) | inactive: 0

# Next part

row,Target,dose-dependent thermal stabilisation call
1,NCBP1 (UniProt Q09161),inactive: 0
2,NOB1 (UniProt Q9ULX3),inactive: 0
3,NCK1 (UniProt P16333),inactive: 0
4,NDUFS1 (UniProt P28331),inactive: 0
5,NME1-NME2 (UniProt P15531),inactive: 0
6,NDUFAF2 (UniProt Q8N183),inactive: 0
7,NDUFV1 (UniProt P49821),inactive: 0
8,NOL9 (UniProt Q5SY16),inactive: 0
9,MTMR4 (UniProt Q9NYA4),inactive: 0
10,NDUFB5 (UniProt O43674),inactive: 0
11,NOMO2 (UniProt Q5JPE7),inactive: 0
12,MYSM1 (UniProt Q5VVJ2),inactive: 0
13,MTCH2 (UniProt Q9Y6C9),inactive: 0
14,NOL7 (UniProt Q9UMY1),inactive: 0
15,NP (UniProt P00491),inactive: 0
16,NAT12 (UniProt Q147X3),inactive: 0
17,NMD3 (UniProt Q96D46),inactive: 0
18,NDUFA10 (UniProt O95299),inactive: 0

# Source: the supplement of paper PMC7666118
